Measurements reported in the supplement of paper PMC3334620.
Whole data set: some 33,000 sequences, median “E-score (-0.5 to 0.5)” near -0.0059, cut for the highest 2% near 0.26. The list shows a part of the results.

Target: T1, Cin5 (UniProt P40917)
T1 sequence: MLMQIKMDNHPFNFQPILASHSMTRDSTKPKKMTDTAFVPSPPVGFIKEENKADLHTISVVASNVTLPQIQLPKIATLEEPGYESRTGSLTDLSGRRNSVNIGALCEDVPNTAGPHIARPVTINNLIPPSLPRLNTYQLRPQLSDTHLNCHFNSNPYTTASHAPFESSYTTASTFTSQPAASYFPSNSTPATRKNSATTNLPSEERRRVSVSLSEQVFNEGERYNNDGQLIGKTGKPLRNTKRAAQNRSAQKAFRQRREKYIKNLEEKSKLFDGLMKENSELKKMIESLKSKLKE
Assay: PBM E-score (8-mer binding enrichment) (E-score (-0.5 to 0.5)); higher = stronger / more preferred TF binding
Conditions: protein concentration: 100 nM; construct: GST-full length
Procedure, shortened: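 Detection of bound protein used fluorescent anti-GST, with scans normalised by masliner. The proteins were GST-tagged yeast transcription factors applied at about 100-200 nM to universal all-10-mer Agilent arrays made double-stranded by primer extension. Each ungapped eight-base word, pooled with its reverse complement, was scored with an E-score from the Universal PBM Analysis Suite.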

Sequence	PBM E-score
TATGGAGA	0.0174
ACCATACA	0.029
GCTAAGAA	-0.152
CGTAAGAG	0.079
GTTGTTAA	0.284
CTTAGCAC	-0.0693
GCTATAAA	0.00468
GACGAAAA	0.211
ACTGCTAC	0.00822
AGTTAGTA	0.106
AGGATCTG	-0.183
CTTAGCCC	-0.0614
AGCCGGCT	-0.174
AGCATCGG	-0.13
GGTTTCCA	-0.121
CGTTAGCA	0.143
GACTTCGC	0.135
CTGTTTGA	0.114
CGCTGTTC	-0.126
AATGTAGG	-0.201
AGTCCCTG	-0.224
CCCTAGAC	-0.112
AGCTGTGG	-0.15
ACCGAACG	0.0281
GCGCGAAA	0.191

Sequence	PBM E-score
GTAAAAAC	0.129
GCTCGGAA	-0.00118
GCTCCCTA	-0.326
CCTAAACG	-0.173
AGTTTTAA	0.141
AGGCTACG	-0.35
ATGGATCA	0.0362
AAGCCTGG	-0.072
CCTGTGGC	-0.187
CAAATCCC	-0.00823
CTGTCCGA	-0.0945
CATATCCA	-0.127
CACAAGAC	-0.0901
AACAGGCT	-0.073
AAGAGTAT	-0.16
AGCACAGC	0.0397
AGGCCGAC	-0.143
TTGGCCAA	-0.0579
GCGCTAGA	0.049
TAACTCTA	0.0799
CAGAACAC	0.00678
TGGCTTAA	0.137
AAGGTTCA	-0.0235
TCGCTAGA	-0.12
ATTGCCAG	0.102

Sequence	PBM E-score
AATACCAC	0.123
AAATTTTG	-0.0524
ACTGTCCT	-0.0109
AATTTCGG	0.0592
AAGTCAGC	0.293
AGCACTGC	-0.0786
GGTACCAC	-0.221
AGACTCGA	-0.143
ATTTGGCG	-0.0495
CTCTGGAC	0.0765
CTCGGCTA	-0.00063
GCATAAGA	0.0468
ATAGTACC	0.00218
CTGGTACC	-0.272
TTCGCCAA	-0.193
CATCGGCG	-0.0538
ACAGTGAC	-0.0331
CGTCAATA	-0.0685
ATGCGGAC	-0.0741
GCTTCTCC	-0.142
CCGCCACC	-0.15
ACTCTGCG	-0.0404
ATAGCGCG	0.108
ACACTCTG	-0.0198
TAGCCCAA	-0.0193

Fetched one by one from the list above:
Sequence	PBM E-score
TTCGCCAA	-0.193
ATAGTACC	0.00218
ACAGTGAC	-0.0331
CCGCCACC	-0.15
AAATTTTG	-0.0524
ATTTGGCG	-0.0495
AGCACTGC	-0.0786

(listing goes on)

Sequence	PBM E-score
CAACAAAC	0.106
GTGCACAC	-0.197
CTAATCCA	0.219
CAGAACCG	0.0518
GAACTATC	0.0863
AACGGGTC	-0.2
AGCAAGAT	0.107
GTTTTGTA	0.173
GACGCGAC	-0.0493
CTCCCTTC	-0.312
CTCTTGAC	-0.177
TACTTCTA	0.0943
AATACAGA	0.106
ACGAGAGG	-0.0722
CGTACATA	0.191
AAGCCGAG	0.0634
ACCCGACT	0.0111
GCGAATCC	0.0051
AGCGGTCA	0.00136
TCTATTCA	0.173
CATTCGGC	0.00096
GGCTGACA	0.239
AAAGGTGG	0.0351
ACGGCCTA	-0.0309
ACCTGAGC	-0.0629

Sequence	PBM E-score
ACTCAGAT	0.099
ACGATTAA	0.0274
AGATGGCA	0.0435
TCCGCGCA	0.00502
AACTATCA	0.184
GTATTACA	0.34
CTGCGCGC	0.163
CGGTGCCA	-0.331
AAAGCCCG	-0.123
GTTCAGAA	-0.0685
AACATTCG	-0.0491
AATTACCG	0.0795
AACAAGAA	0.103
AGTGGATG	0.0625
ACAGACCC	-0.148
TACCTGAA	0.0966
CAACAGCA	-0.0833
CAAACGAG	0.00716
ATATTGAA	0.0267
AATCATAG	0.291
GACCGGAC	-0.102
CTCTAATC	-0.145
CACGAGTC	-0.106
ACCTTCGC	-0.135
CAGCGGAG	0.015

Sequence	PBM E-score
ATTAAGGA	0.0984
ATTCTTTG	0.108
GCTGATGA	0.142
GCCATTCA	0.0283
AGCTGCGA	-0.0401
CTAGTGAA	0.00047
ACCCAAAC	0.214
CCAGGGAC	-0.267
ATGTCTTC	-0.192
ATCCCCAC	0.101
CAGGTCCA	-0.0937
CTTGCGCC	-0.147
CACCACTG	-0.118
ATCGACGA	-0.0409
CCGACTAC	-0.119
ACGAAGCG	-0.0772
CAAAGTGG	-0.0385
AGTACGTA	0.229
GGTAGACC	-0.276
GACCGACC	-0.0743
GTGACCGA	-0.0493
AAGAGGCC	-0.123
AGCGCCCT	-0.05
GTTCGTGA	-0.243
ATAGCACC	0.00185

Sequence	PBM E-score
CGCCATAG	-0.0304
ATGTAAAG	0.0925
AGGTCTTA	-0.071
CAGAGTCG	0.0722
CAGCATAG	0.0061
ACGCAATG	-0.0511
CGGCCATA	-0.161
CACGGTGA	-0.0758
CTCGGCGC	0.0133
GAGACCTC	-0.108
ACACACGC	0.0303
AACCGTGA	-0.0786
ACCTCGCA	-0.06
AACAGCAA	0.144
CGCCAAGC	-0.235
AGTACGCA	-0.185
AAGAGACG	0.0168
CAGACTAA	-0.035
ATGTACCG	0.00371
AAGGAGTG	0.0324
ACCAATAT	0.323
CGGCTCTA	-0.0308
